For 1 molecule, binding results are on record in publication doi:10.1101/2022.02.28.482264.

Amino acid sequences for entries named in this document (tags omitted).
UniProt O95835: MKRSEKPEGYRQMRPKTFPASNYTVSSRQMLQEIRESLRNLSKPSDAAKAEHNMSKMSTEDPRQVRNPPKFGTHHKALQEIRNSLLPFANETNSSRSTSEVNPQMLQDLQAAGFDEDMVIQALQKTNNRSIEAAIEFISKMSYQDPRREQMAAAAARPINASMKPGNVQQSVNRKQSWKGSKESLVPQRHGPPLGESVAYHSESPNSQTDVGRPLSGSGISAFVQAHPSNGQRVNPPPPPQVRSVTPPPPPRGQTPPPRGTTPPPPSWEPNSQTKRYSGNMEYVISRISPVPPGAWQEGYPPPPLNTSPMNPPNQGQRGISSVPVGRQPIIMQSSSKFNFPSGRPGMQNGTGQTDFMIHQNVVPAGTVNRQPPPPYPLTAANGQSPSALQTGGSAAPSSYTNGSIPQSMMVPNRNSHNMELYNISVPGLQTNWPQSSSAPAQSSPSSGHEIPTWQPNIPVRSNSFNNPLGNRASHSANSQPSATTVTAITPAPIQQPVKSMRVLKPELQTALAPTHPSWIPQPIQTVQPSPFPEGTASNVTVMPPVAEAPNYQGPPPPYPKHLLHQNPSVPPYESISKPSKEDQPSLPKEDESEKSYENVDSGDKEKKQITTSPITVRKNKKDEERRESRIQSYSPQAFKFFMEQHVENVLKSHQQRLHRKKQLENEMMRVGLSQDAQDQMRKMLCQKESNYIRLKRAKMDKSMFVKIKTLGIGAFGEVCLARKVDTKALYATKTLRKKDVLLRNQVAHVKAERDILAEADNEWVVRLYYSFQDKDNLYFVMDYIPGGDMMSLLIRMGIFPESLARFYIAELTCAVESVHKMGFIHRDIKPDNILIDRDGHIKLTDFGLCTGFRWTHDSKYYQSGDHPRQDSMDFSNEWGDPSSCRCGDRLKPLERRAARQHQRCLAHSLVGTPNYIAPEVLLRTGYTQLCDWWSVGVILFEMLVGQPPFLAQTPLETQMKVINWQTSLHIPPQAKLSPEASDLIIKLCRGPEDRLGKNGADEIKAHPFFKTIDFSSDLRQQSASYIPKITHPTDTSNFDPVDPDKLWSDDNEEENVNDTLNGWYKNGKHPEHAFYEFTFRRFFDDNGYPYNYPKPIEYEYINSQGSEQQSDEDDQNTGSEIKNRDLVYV

Results are given in words; binding and its absence hold for the method and conditions named. In cells and extracts the contact can be indirect. Here binding means that the protein was enriched with, or labelled near, the bait; the list need not be complete. For some assays here: Tags and fused reporters may be left off the sequences shown.

The target in experiment [1] is BirA-tag LATS1 (BioID bait) (UniProt O95835). Kind of experiment: proximity labelling.
The target of experiment [2] is T1, BirA-tag LATS2 (BioID bait) (UniProt Q9NRM7).
T1 sequence: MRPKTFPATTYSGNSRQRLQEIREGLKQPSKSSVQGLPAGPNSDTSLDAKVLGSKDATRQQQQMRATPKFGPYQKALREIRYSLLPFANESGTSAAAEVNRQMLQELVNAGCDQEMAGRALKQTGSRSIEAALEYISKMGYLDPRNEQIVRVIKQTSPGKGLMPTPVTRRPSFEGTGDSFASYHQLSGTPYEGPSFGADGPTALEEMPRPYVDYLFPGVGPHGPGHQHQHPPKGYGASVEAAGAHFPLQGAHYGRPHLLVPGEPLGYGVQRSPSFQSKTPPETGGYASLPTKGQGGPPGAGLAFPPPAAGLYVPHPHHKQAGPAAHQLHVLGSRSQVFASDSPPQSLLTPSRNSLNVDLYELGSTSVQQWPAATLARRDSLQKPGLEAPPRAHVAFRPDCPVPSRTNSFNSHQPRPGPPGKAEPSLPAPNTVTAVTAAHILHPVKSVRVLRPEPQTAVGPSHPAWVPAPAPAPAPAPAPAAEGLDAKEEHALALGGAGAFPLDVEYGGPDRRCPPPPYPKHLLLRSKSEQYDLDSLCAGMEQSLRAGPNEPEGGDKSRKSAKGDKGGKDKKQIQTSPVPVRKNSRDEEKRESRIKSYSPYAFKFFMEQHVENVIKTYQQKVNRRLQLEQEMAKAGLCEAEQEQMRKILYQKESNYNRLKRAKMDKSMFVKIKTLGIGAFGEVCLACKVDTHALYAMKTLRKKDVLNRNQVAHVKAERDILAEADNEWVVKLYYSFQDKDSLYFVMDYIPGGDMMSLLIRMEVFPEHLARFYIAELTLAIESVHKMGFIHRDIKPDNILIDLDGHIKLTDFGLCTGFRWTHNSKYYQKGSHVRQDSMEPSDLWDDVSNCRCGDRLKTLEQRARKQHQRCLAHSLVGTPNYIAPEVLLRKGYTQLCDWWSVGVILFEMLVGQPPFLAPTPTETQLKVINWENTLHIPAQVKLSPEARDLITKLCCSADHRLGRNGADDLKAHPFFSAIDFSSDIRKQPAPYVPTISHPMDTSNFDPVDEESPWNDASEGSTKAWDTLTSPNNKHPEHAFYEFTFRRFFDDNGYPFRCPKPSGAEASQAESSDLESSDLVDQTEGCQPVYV
Kind of experiment: proximity labelling.

B1: KIRREL1 found by BioID-MS in HEK293A cells (receptor, UniProt Q96J84 17-757)
chain: QGTQTRFSQEPADQTVVAGQRAVLPCVLLNYSGIVQWTKDGLALGMGQGLKAWPRYRVVGSADAGQYNLEITDAELSDDASYECQATEAALRSRRAKLTVLIPPEDTRIDGGPVILLQAGTPHNLTCRAFNAKPAATIIWFRDGTQQEGAVASTELLKDGKRETTVSQLLINPTDLDIGRVFTCRSMNEAIPSGKETSIELDVHHPPTVTLSIEPQTVQEGERVVFTCQATANPEILGYRWAKGGFLIEDAHESRYETNVDYSFFTEPVSCEVHNKVGSTNVSTLVNVHFAPRIVVDPKPTTTDIGSDVTLTCVWVGNPPLTLTWTKKDSNMVLSNSNQLLLKSVTQADAGTYTCRAIVPRIGVAEREVPLYVNGPPIISSEAVQYAVRGDGGKVECFIGSTPPPDRIAWAWKENFLEVGTLERYTVERTNSGSGVLSTLTINNVMEADFQTHYNCTAWNSFGPGTAIIQLEEREVLPVGIIAGATIGASILLIFFFIALVFFLYRRRKGSRKDVTLRKLDIKVETVNREPLTMHSDREDDTASVSTATRVMKAIYSSFKDDVDLKQDLRCDTIDTREEYEMKDPTNGYYNVRAHEDRPSSRAVLYADYRAPGPARFDGRPSSRLSHSSGYAQLNTYSRGPASDYGPEPTPPGPAAPAGTDTTSQLSYENYEKFNSHPFPGAAGYPTYRLGYPQAPPSGLERTPYEAYDPIGKYATATRFSYTSQHSDYGQRFQQRMQTHV
With B1, the binding result in experiment [1] and in experiment [2] was “binds” each time.
